Data as given in US20210388102A1.
Where a chain is given by its changes, count along the chain named. Results are given in words; binding and its absence hold for the method and conditions named. Some results given as binding are weak or reduced against the parent protein; the word gives no strength.

Amino acid sequences for entries named in this document (tags omitted). A change or cut given only in a name is not applied to a line headed by its entry.
UniProt Q13443: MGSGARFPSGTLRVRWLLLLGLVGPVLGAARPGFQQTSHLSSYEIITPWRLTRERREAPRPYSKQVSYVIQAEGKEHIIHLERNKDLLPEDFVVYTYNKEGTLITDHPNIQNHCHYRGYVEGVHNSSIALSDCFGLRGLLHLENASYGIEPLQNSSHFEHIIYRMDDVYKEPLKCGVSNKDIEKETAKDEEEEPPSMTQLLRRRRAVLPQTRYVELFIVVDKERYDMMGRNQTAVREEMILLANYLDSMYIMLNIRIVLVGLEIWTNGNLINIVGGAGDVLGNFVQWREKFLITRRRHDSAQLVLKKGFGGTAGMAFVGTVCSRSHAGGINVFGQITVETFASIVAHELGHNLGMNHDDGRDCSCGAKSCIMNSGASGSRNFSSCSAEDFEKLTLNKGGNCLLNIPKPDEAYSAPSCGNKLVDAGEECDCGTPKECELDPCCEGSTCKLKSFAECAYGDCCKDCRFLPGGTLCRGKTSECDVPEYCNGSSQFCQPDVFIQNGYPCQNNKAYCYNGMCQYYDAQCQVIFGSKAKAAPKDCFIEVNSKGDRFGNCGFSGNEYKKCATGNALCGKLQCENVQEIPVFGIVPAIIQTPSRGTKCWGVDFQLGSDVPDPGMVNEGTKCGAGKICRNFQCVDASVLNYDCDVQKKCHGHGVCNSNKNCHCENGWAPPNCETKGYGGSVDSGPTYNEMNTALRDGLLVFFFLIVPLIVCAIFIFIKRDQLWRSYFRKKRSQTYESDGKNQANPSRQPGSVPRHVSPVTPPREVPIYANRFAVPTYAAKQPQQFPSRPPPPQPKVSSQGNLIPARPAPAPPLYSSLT

Assays:
[1] = molecular target: human ADAM9 (huADAM9) on cells (human) (UniProt Q13443); test: FACS, 293-FT cells transiently expressing huADAM9; MAB-A then goat anti-murine-PE; yellow fluorescence (YLW-HLog)
[2] = molecular target: human ADAM9 (huADAM9) on cells (human) (UniProt Q13443); test: FACS, CHO-K cells transiently expressing huADAM9; MAB-A then goat anti-murine-PE; yellow fluorescence (YLW-HLog)
[3] = molecular target: cynomolgus monkey ADAM9 (cynoADAM9) on cells (cynomolgus monkey); test: FACS, CHO-K cells transiently expressing cynoADAM9; MAB-A then goat anti-murine-PE; yellow fluorescence (YLW-HLog)
[4] = molecular target: human ADAM9 (huADAM9) on cells (human) (UniProt Q13443); test: FACS, 293-FT and CHO-K cells, goat anti-murine-PE
[5] = molecular target: cynomolgus monkey ADAM9 (cynoADAM9) on cells (cynomolgus monkey); test: FACS, 293-FT and CHO-K cells, goat anti-murine-PE
[6] = molecular target: human ADAM9 (huADAM9) on cells (human) (UniProt Q13443); test: FACS (FIG. 2)
[7] = molecular target: cynomolgus monkey ADAM9 (cynoADAM9) on cells (cynomolgus monkey); test: FACS (FIG. 2)
[8] = molecular target: cynomolgus monkey ADAM9 (cynoADAM9) on cells (cynomolgus monkey); test: cell staining (FACS), 293-FT and CHO-K cells transiently expressing cynoADAM9
[9] = molecular target: human ADAM9 (huADAM9) on cells (human) (UniProt Q13443); test: cell staining (FACS), 293-FT and CHO-K cells transiently expressing huADAM9
[10] = molecular target: cynomolgus monkey ADAM9 (cynoADAM9) on cells (cynomolgus monkey); test: FACS, 293-FT cells transiently expressing cynoADAM9; MAB-A then goat anti-murine-PE; yellow fluorescence (YLW-HLog)
[11] = molecular target: human ADAM9 (huADAM9) on cells (human) (UniProt Q13443); test: IHC, A498 Cell Pellet, 1.25 µg/mL
[12] = molecular target: human ADAM9 (huADAM9) on cells (human) (UniProt Q13443); test: IHC, A498 072210 cells, 2.5 µg/mL
[13] = molecular target: His-tagged soluble human ADAM9 (shADAM9-His) (human) (UniProt Q13443); test: ELISA: His-tagged soluble huADAM9 (1 µg/mL) captured by plate-coated anti-His antibody; serial dilutions of antibody 0.03-1 µg/ml; readout RLU
[14] = molecular target: cynomolgus monkey ADAM9 (cynoADAM9) on cells (cynomolgus monkey); test: IHC, Cho-K Cyno #16 cells, 2.5 µg/mL; IHC, Cho-K Cyno #16 cells, 2.5 µg/mL
[15] = molecular target: cynomolgus monkey ADAM9 (cynoADAM9) on cells (cynomolgus monkey); test: FACS, 300-19 cells expressing cynomolgus ADAM9; FACS, 300-19 cells expressing cynoADAM9, 4° C.; compared with chMAB-A
[16] = molecular target: human ADAM9 (huADAM9) on cells (human) (UniProt Q13443); test: IHC, Cho-K/hu ADAM9.18 high expression P:1 cells, 2.5 µg/mL
[17] = molecular target: cynomolgus monkey ADAM9 (cynoADAM9) on cells (cynomolgus monkey); test: FACS and ELISA; FACS and ELISA (Example 3 studies); weak but present binding
[18] = molecular target: His-tagged soluble human ADAM9 (shADAM9-His) (human) (UniProt Q13443); test: BIACORE
[19] = molecular target: human ADAM9 (huADAM9) on cells (human) (UniProt Q13443); test: IHC, Cho-K/hu ADAM9.2 medium expression P:1 cells, 2.5 µg/mL
[20] = molecular target: His-tagged soluble human ADAM9 (shADAM9-His) (human) (UniProt Q13443); test: SPR (BIACORE)
[21] = molecular target: His-tagged soluble human ADAM9 (shADAM9-His) (human) (UniProt Q13443); test: ELISA, His-tagged soluble huADAM9 (1 µg/mL) captured by anti-His antibody
[22] = molecular target: cynomolgus monkey ADAM9 (cynoADAM9) on cells (cynomolgus monkey); test: FACS, 300-19 cells expressing cynomolgus ADAM9
[23] = molecular target: cynomolgus monkey ADAM9 (cynoADAM9) on cells (cynomolgus monkey); test: IHC, Cho-K Cyno #2 cells, 2.5 µg/mL
[24] = molecular target: cynomolgus monkey ADAM9 (cynoADAM9) on cells (cynomolgus monkey); test: IHC, Cho-K Cyno #16 cells, 2.5 µg/mL
[25] = molecular target: human ADAM9 (huADAM9) on cells (human) (UniProt Q13443); test: IHC, Cho-K/hu ADAM9.18 high expression P:1 cells, 5 µg/mL
[26] = molecular target: human ADAM9 (huADAM9) on cells (human) (UniProt Q13443); test: IHC, Cho-K/hu ADAM9.2 medium expression P:1 cells, 5 µg/mL
[27] = molecular target: cynomolgus monkey ADAM9 (cynoADAM9) on cells (cynomolgus monkey); test: IHC, Cho-K Cyno #16 cells, 5 µg/mL
[28] = molecular target: human ADAM9 (huADAM9) on cells (human) (UniProt Q13443); test: IHC, A498 072210 cells, 5 µg/mL
[29] = molecular target: cynomolgus monkey ADAM9 (cynoADAM9) on cells (cynomolgus monkey); test: IHC, Cho-K Cyno #2 cells, 5 µg/mL
[30] = molecular target: cynomolgus monkey ADAM9 (cynoADAM9) on cells (cynomolgus monkey); test: FACS and ELISA

Measured: binding

B1: MAB-A (antibody, V domains shown)
VH: QVQLQQPGAELVKPGASVKLSCKASGYTFTSYWMHWVKQRPGQGLEWIGEIIPINGHTNYNEKFKSKATLTLDKSSSTAYMQLSSLASEDSAVYYCARGGYYYYGSRDYFDYWGQGTTLTVSS
VL: DIVLTQSPASLAVSLGQRATISCKASQSVDYDGDSYMNWYQQIPGQPPKLLIYAASDLESGIPARFSGSGSGTDFTLNIHPVEEEDAATYYCQQSHEDPFTFGGGTKLEIK
binds: [1] | [2] | [3] | [4] | [5] | [6] | [7] | [8] | [9] | [10] | [11]

B2: hMAB-A (2.2) (antibody, human IgG1, kappa, V domains shown)
VH: EVQLVESGGGLVKPGGSLRLSCAASGFTFSSYWMHWVRQAPGKGLEWVGEIIPIFGHTNYNEKFKSRFTISLDNSKNTLYLQMGSLRAEDTAVYYCARGGYYYYGSRDYFDYWGQGTTVTVSS
VL: DIVMTQSPDSLAVSLGERATISCKASQSVDYSGDSYMNWYQQKPGQPPKLLIYAASDLESGIPARFSGSGSGTDFTLTISSLEPEDFATYYCQQSHEDPFTFGQGTKLEIKR
binds: [12] | [13] | [14] | [15] | [16] | [17] | [18] | [19]

B3: hMAB-A (2B.2) (antibody, V domains shown)
VH: B2 VH with G105I, S106G, R107K, D108G, Y109V, F110L
VL: DIVMTQSPDSLAVSLGERATISCKASQSVDYSGDSYMNWYQQKPGQPPKLLIYAASDLESGIPARFSGSGSGTDFTLTISSLEPEDFATYYCQQSHEDPFTFGQGTKLEIK
binds: [13] | [20] | [21]

B4: hMAB-A (2C.2) (antibody, human IgG1, kappa, V domains shown)
VH: B2 VH with G105P, S106R, R107F, D108G, Y109W, F110L
VL: B2 VL
binds: [12] | [13] | [16] | [19] | [22] | [20] | [21] | [23] | [24]

B5: hMAB-A (2D.2) (antibody, V domains shown)
VH: B2 VH with G105T, S106G, R107K, D108G, Y109V, F110L
VL: B3 VL
binds: [13] | [20] | [21]

B6: hMAB-A (2A.2) (antibody, V domains shown)
VH: B2 VH with G105F, S106N, R107S, D108G, Y109T, F110L
VL: B3 VL
binds: [13]

B7: hMAB-A (2J.2) (antibody, V domains shown)
VH: B2 VH with G105Y, S106N, R107S, D108G, Y109T, F110L
VL: B3 VL
binds: [13]

B8: hMAB-A (2F.2) (antibody, V domains shown)
VH: B2 VH with G105F, S106H, R107S, D108G, Y109T, F110L
VL: B3 VL
binds: [13]

B9: hMAB-A (2G.2) (antibody, V domains shown)
VH: B2 VH with G105F, S106N, R107K, D108A, Y109V, F110L
VL: B3 VL
binds: [13]

B10: hMAB-A (2E.2) (antibody, V domains shown)
VH: B2 VH with G105D, R107N, D108A, Y109V, F110L
VL: B3 VL
binds: [13]

B11: hMAB-A (2H.2) (antibody, V domains shown)
VH: B2 VH with S106G, R107S, D108G, Y109V, F110L
VL: B3 VL
binds: [13]

B12: hMAB-A (2.3) (antibody, V domains shown)
VH: B2 VH
VL: B3 VL with K24R
binds: [25] | [26] | [18] | [27] | [28] | [29] | [30]

B13: hMAB-A (4.4) (antibody, V domains shown)
VH: B2 VH with M34I, K63R, K65Q, S66G
VL: B3 VL with K24R, M37L, H96Y, E97S, D98T
binds: [18]

B14: hMAB-A (1.1) (antibody, V domains shown)
VH: B2 VH with F55N
VL: B3 VL with S32D
binds: [18]

B15: hMAB-A (3.3) (antibody, V domains shown)
VH: B2 VH with K63R, K65Q, S66G
VL: B3 VL with K24R
binds: [18]
